From publication PMC8255318 come the findings set out here.

The chains behind the UniProt entries cited, without tags or fusion partners.
UniProt Q04206: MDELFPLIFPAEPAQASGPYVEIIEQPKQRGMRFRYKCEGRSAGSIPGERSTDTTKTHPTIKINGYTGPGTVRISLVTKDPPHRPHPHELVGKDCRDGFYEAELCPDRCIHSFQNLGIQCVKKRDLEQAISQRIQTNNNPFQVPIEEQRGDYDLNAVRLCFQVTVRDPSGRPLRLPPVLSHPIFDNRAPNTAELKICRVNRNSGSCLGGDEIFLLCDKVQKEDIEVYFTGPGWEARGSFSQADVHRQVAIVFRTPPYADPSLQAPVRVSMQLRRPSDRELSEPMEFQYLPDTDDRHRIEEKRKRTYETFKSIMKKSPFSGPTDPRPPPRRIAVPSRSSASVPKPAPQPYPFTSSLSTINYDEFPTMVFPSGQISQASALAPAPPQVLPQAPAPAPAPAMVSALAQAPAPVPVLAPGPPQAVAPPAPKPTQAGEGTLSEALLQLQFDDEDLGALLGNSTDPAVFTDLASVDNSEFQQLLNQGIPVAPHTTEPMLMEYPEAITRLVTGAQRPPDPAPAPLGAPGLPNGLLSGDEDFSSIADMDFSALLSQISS

No constants are given. Whether binding was seen depends on the method and setting. In cells and extracts the contact can be indirect. Some entries that bind do so weakly or less than the wild type.

The target of this assay is T1, Kinectin 1 (KTN1) (human) (UniProt Q86UP2).
T1 sequence: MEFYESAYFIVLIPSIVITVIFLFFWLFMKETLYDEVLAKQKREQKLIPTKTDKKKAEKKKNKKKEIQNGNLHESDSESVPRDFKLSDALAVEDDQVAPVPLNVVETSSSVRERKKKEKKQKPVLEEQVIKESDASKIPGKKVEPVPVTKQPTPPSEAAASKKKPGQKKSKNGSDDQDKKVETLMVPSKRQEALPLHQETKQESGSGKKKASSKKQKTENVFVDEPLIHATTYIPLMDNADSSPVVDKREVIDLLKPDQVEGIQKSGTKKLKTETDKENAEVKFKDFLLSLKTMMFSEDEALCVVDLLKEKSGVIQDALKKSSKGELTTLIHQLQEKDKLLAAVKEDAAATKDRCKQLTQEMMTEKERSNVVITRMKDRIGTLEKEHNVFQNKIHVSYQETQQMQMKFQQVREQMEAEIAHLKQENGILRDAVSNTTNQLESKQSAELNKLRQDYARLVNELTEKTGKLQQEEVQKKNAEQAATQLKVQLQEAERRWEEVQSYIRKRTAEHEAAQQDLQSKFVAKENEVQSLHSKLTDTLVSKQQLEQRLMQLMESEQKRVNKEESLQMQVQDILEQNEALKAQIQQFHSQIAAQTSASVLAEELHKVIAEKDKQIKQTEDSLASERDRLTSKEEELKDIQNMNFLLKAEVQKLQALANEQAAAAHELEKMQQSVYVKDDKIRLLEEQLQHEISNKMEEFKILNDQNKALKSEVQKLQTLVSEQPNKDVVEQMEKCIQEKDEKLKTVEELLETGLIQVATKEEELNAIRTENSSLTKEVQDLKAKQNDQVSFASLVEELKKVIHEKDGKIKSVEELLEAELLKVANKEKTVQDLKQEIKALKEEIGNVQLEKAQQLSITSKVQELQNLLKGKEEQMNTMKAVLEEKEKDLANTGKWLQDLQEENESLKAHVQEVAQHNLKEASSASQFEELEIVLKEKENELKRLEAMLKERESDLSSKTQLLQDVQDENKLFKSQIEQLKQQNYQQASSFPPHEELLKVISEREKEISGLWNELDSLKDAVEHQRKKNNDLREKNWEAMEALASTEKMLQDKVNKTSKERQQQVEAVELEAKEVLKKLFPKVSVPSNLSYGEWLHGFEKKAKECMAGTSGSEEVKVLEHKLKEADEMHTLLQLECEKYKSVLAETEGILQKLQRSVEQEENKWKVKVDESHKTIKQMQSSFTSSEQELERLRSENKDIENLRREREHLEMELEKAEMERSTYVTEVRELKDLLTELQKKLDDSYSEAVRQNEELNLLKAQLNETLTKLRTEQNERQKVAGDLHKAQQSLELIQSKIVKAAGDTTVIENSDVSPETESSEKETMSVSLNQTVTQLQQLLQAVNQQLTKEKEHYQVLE
As to the kind of experiment: co-IP; MDA-MB-231 and BT-549 lysates (nucleus and cytoplasm) from cells with KTN1 overexpression or negative control vector; Pierce Co-Immunoprecipitation Kit; 20 µg total-KTN1 antibody, 1 µg normal mouse IgG as negative control; Western blot detection. A general note: Immunoblotting shows a protein as a band on a membrane.

For the substance NF-κB/p65 (from UniProt Q04206 1-551), the binding result is “binds”.
